The text below walks through data of paper PMC9957728.

Test [1] concerns the target T1, Flag-tagged wild-type UBE2J1 (UniProt Q9Y385).
T1 sequence: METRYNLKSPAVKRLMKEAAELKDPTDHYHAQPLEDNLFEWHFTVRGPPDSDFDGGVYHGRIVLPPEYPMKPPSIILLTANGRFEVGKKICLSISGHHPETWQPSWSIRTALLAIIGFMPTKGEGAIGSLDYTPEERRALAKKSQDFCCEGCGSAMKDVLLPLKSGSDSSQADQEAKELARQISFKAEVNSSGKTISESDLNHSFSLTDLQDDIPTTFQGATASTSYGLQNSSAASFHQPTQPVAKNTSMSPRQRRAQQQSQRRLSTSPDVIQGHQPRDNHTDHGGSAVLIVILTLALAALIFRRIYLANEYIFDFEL
As to the kind of experiment: co-IP; HEK293T cells transfected with the indicated plasmids for 24 h; for UBE2J1 and RPS3 treated with MG132 (10 μM) for 8 h; western blotting.

For test [2], the target named is T2, Ubiquitin-conjugating enzyme E2 J1 (UBE2J1), endogenous (human (endogenous in DLD-1 and LoVo)) (UniProt Q9Y385).
T2 sequence: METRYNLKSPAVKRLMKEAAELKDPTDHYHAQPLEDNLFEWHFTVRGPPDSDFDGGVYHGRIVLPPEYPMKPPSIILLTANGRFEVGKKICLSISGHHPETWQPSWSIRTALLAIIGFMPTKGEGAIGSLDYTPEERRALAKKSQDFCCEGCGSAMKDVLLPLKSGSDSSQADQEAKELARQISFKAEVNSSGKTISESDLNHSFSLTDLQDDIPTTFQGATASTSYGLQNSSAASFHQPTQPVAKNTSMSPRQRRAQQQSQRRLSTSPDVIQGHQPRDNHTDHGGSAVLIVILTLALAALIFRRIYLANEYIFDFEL
The test can be described thus: co-IP; endogenous proteins in DLD-1 and LoVo lysates; primary antibody at 4 °C overnight, protein A/G magnetic beads, western blotting; for UBE2J1 and RPS3 cells treated with MG132 (10 μM) for 8 h.

The target of test [3] is TRIM25 expressed from an overexpression plasmid (UniProt Q14258). The test can be described thus: co-IP; HEK293T cells transfected with the indicated plasmids for 24 h; for UBE2J1 and RPS3 treated with MG132 (10 μM) for 8 h; western blotting.
For test [4] the target is unchanged. As to the kind of experiment: co-IP; co-immunoprecipitation with deletion mutants of TRIM25, RPS3 and UBE2J1 to map domains (Fig. S3G-J); cells and tags not told in the text shown.
Test [5] deals with TRIM25 (RING-type E3 ubiquitin ligase), endogenous (human (endogenous in DLD-1 and LoVo)) (UniProt Q14258). As to the kind of experiment: co-IP; endogenous proteins in DLD-1 and LoVo lysates; primary antibody at 4 °C overnight, protein A/G magnetic beads, western blotting; for UBE2J1 and RPS3 cells treated with MG132 (10 μM) for 8 h. Background: Immunoblotting shows a protein as a band on a membrane.

Results are given in words; binding and its absence hold for the method and conditions named. Binding seen in cells or lysates may run through a third protein. Some entries that bind do so weakly or less than the wild type. For some assays here: Sequences can lack the tags named with a protein.

As to “TRIM25 expressed from an overexpression plasmid (from UniProt Q14258 1-630) (enzyme)”, in test [1], the binding result was “binds”.

For “TRIM25 (RING-type E3 ubiquitin ligase), endogenous (from UniProt Q14258 1-630) (enzyme)”, in test [2], the binding entry is given as “binds”.

B1: Flag-tagged wild-type UBE2J1 (enzyme, UniProt Q9Y385 1-318)
chain: METRYNLKSPAVKRLMKEAAELKDPTDHYHAQPLEDNLFEWHFTVRGPPDSDFDGGVYHGRIVLPPEYPMKPPSIILLTANGRFEVGKKICLSISGHHPETWQPSWSIRTALLAIIGFMPTKGEGAIGSLDYTPEERRALAKKSQDFCCEGCGSAMKDVLLPLKSGSDSSQADQEAKELARQISFKAEVNSSGKTISESDLNHSFSLTDLQDDIPTTFQGATASTSYGLQNSSAASFHQPTQPVAKNTSMSPRQRRAQQQSQRRLSTSPDVIQGHQPRDNHTDHGGSAVLIVILTLALAALIFRRIYLANEYIFDFEL
B1: the binding result in test [3] and in test [4] was “binds” in each case.

B2: Ubiquitin-conjugating enzyme E2 J1 (UBE2J1), endogenous (enzyme, UniProt Q9Y385 1-318)
chain: METRYNLKSPAVKRLMKEAAELKDPTDHYHAQPLEDNLFEWHFTVRGPPDSDFDGGVYHGRIVLPPEYPMKPPSIILLTANGRFEVGKKICLSISGHHPETWQPSWSIRTALLAIIGFMPTKGEGAIGSLDYTPEERRALAKKSQDFCCEGCGSAMKDVLLPLKSGSDSSQADQEAKELARQISFKAEVNSSGKTISESDLNHSFSLTDLQDDIPTTFQGATASTSYGLQNSSAASFHQPTQPVAKNTSMSPRQRRAQQQSQRRLSTSPDVIQGHQPRDNHTDHGGSAVLIVILTLALAALIFRRIYLANEYIFDFEL
With B2, the binding result in test [5] was “binds”.
